For some of these results: Expression values are those of the mRNA of the gene that encodes the peptide; a gene is named only where it was looked up.
Assays:
[1] = system: source genes in OC tumors compared to a panel of normal tissues; assay: Expression profiling of genes encoding the peptides (RNAseq), expression scores; design: species or system human; key: very highly over-expressed in OC tumors compared to a panel of normal tissues (+++); highly over-expressed in OC tumors compared to a panel of normal tissues (++); over-expressed in OC tumors compared to a panel of normal tissues (+); settings: expression score of source gene
[2] = system: ovarian cancer tissue samples; assay: Identification of tumor associated peptides presented on the cell surface (HLA immunoprecipitation, LC-MS); presentation across tumor types; design: species or system human; settings: tumor types on which the peptide was found presented (HLA immunoprecipitation, LC-MS); abbreviations in table footnote

Substance | Gene Expression [1] | Peptide Presentation on tumor types [2]
128: peptide found in KLK14 (gene looked up) (YPRTITPGM; listed as Homo sapiens) [compound 128] | + | 
37: peptide found in MUC16 (gene looked up) (RPLFQKSSM; listed as Homo sapiens) [compound 37] | +++ | 
177: peptide found in BCAT1 (gene looked up) (TEVGTMNLF; listed as Homo sapiens) [compound 177] | ++ | 
313: peptide found in HTR3A (gene looked up) (KVKSDRSVF; listed as Homo sapiens) [compound 313] | +++ | 
290: peptide found in MYO3B (gene looked up) (DMDEEIEAEY; listed as Homo sapiens) [compound 290] | +++ | 
160: peptide found in MSLN (gene looked up) (YPKARLAF; listed as Homo sapiens) [compound 160] | ++ | 
248: peptide found in MSLN (gene looked up) (SVIQHLGY; listed as Homo sapiens) [compound 248] | ++ | 
183: peptide found in ETV1 (gene looked up) (YEKGIMQKV; listed as Homo sapiens) [compound 183] | ++ | 
218: peptide found in CD70 (gene looked up) (TIASQRLTPL; listed as Homo sapiens) [compound 218] | ++ | 
159: peptide found in MSLN (gene looked up) (VLKHKLDEL; listed as Homo sapiens) [compound 159] | ++ | 
154: peptide found in CRABP2 (gene looked up) (MLRKIAVAA; listed as Homo sapiens) [compound 154] | ++ | 
70: peptide found in MUC16 (gene looked up) (VLQGLLRSL; listed as Homo sapiens) [compound 70] | +++ | 
238: peptide found in MUC16 (gene looked up) (PLLVLFTI; listed as Homo sapiens) [compound 238] | +++ | 
163: peptide found in MUC16 (gene looked up) (QGLLRPVF; listed as Homo sapiens) [compound 163] | +++ | 
266: peptide found in IGF2BP1 (gene looked up) (ISYSGQFLVK; listed as Homo sapiens) [compound 266] | +++ | 
23: peptide found in ESR1 (gene looked up) (GMMKGGIRK; listed as Homo sapiens) [compound 23] | +++ | 
412: peptide found in IGF2BP3 (gene looked up) (QEILTQVKQ; listed as Homo sapiens) [compound 412] | +++ | 
296 (YPLRGSSI; listed as Homo sapiens) [compound 296] |  | UEC
215 (SEDGLPEGIHL; listed as Homo sapiens) [compound 215] |  | CLL, GC, GEJC, HNSCC, NHL, NSCLC, PACA
277 (TTALKTTSR; listed as Homo sapiens) [compound 277] |  | NSCLC
279 (SVSSETTKIKR; listed as Homo sapiens) [compound 279] |  | UEC
591 (VRGEVAPDAKSFVLNL; listed as Homo sapiens) [compound 591] |  | NSCLC, RCC
78 (SFAPRSAVF; listed as Homo sapiens) [compound 78] |  | SCLC

Substance | Gene Expression [1] | Peptide Presentation on tumor types [2]
682 (GVRGSLLSEADVRALGGL; listed as Homo sapiens) [compound 682] |  | NSCLC
146 (IPRPEVQAL; listed as Homo sapiens) [compound 146] |  | AML, CRC, GC, HNSCC, MEL
228 (RLWDWVPLA; listed as Homo sapiens) [compound 228] |  | AML, NHL
4 (ALFKAWAL; listed as Homo sapiens) [compound 4] |  | AML, BRCA, CLL, CRC, GBC, GC, HCC, HNSCC, MEL, NHL, NSCLC, OSCAR, RCC, SCLC, UBC, UEC
64 (FLDPDRHFL; listed as Homo sapiens) [compound 64] |  | BRCA, CCC, CRC, GBC, GC, GEJC, HCC, HNSCC, MEL, NSCLC, OSCAR, PACA, PRCA, RCC, SCLC, UBC, UEC
546 (GRAFFAAAF; listed as Homo sapiens) [compound 546] |  | CRC, GBM, HNSCC, MEL, NSCLC, OSCAR, PACA, SCLC, UBC, UEC
31 (LLDEGAMLLY; listed as Homo sapiens) [compound 31] |  | GBC, HNSCC, NSCLC, SCLC, UBC
477 (RIQQQTNTY; listed as Homo sapiens) [compound 477] |  | GBM, SCLC
391 (APSTPRITTF; listed as Homo sapiens) [compound 391] |  | HCC, NHL
371 (LYVDGFTHW; listed as Homo sapiens) [compound 371] |  | NSCLC, UEC
438 (SEVDSPNVL; listed as Homo sapiens) [compound 438] |  | CCC, CLL, CRC, GC, HNSCC, MEL, NHL, NSCLC, SCLC, UBC
466 (DLIESGQLRER; listed as Homo sapiens) [compound 466] |  | UEC
317 (FPFQPGSV; listed as Homo sapiens) [compound 317] |  | AML, BRCA, CLL, CRC, GBC, GBM, GC, HCC, HNSCC, MEL, NHL, NSCLC, OSCAR, PACA, PRCA, RCC, SCLC, UBC, UEC
550 (RRFKEPWFL; listed as Homo sapiens) [compound 550] |  | BRCA, HCC, MEL, NSCLC, PRCA, SCLC, UBC, UEC
33 (SPTFHLTL; listed as Homo sapiens) [compound 33] |  | NSCLC, PRCA, SCLC, UBC, UEC
697 (GSLLSEADVRALG; listed as Homo sapiens) [compound 697] |  | NSCLC
326 (VPSEIDAAF; listed as Homo sapiens) [compound 326] |  | BRCA, CCC, CRC, GBC, GC, NSCLC, OSCAR, PACA, RCC, SCLC, UEC
651 (LPVLGQPIIRSIPQGIVAA; listed as Homo sapiens) [compound 651] |  | NSCLC
106 (AAFVPLLLK; listed as Homo sapiens) [compound 106] |  | AML, BRCA, NHL, NSCLC, SCLC
458 (TDTLIHLM; listed as Homo sapiens) [compound 458] |  | UEC
447 (MQVLVSRI; listed as Homo sapiens) [compound 447] |  | GC, NSCLC, PACA, PRCA, RCC, SCLC
408 (LEKALQVF; listed as Homo sapiens) [compound 408] |  | CRC, GC, HNSCC, OSCAR, UEC
217 (VSSSLTLKV; listed as Homo sapiens) [compound 217] |  | BRCA, RCC

Substance | Gene Expression [1] | Peptide Presentation on tumor types [2]
680 (GVRGSLLSEADVRALGGLA; listed as Homo sapiens) [compound 680] |  | NSCLC
630 (ALRGLLPVLGQPIIRSIPQ; listed as Homo sapiens) [compound 630] |  | NSCLC
152 (MGSARVAEL; listed as Homo sapiens) [compound 152] |  | HNSCC
590 (RVRGEVAPDAKSFVLNLG; listed as Homo sapiens) [compound 590] |  | NSCLC
28 (KTYETNLEIKK; listed as Homo sapiens) [compound 28] |  | NSCLC, UBC
123 (KPSESIYSAL; listed as Homo sapiens) [compound 123] |  | BRCA, CRC, HNSCC, MEL, NHL, NSCLC, OSCAR, SCLC, UBC
180 (REAGDEFELRY; listed as Homo sapiens) [compound 180] |  | CRC, HCC, MEL, NSCLC, OSCAR, PACA, RCC, UEC
410 (SEDPSKLEA; listed as Homo sapiens) [compound 410] |  | BRCA, HNSCC, NSCLC, OSCAR, SCLC, UEC
666 (LPLTVAEVQKLLGPHVEG; listed as Homo sapiens) [compound 666] |  | NSCLC
94 (ATFERVLLR; listed as Homo sapiens) [compound 94] |  | BRCA, NSCLC
25 (GTSPPSVEK; listed as Homo sapiens) [compound 25] |  | UEC
654 (PVLGQPIIRSIPQGIVA; listed as Homo sapiens) [compound 654] |  | GC, NSCLC
289 (RWEKTDLTY; listed as Homo sapiens) [compound 289] |  | CRC, UEC
68 (KLFDTQQFL; listed as Homo sapiens) [compound 68] |  | AML, BRCA, CRC, HCC, HNSCC, MEL, NHL, NSCLC, OSCAR, RCC
241 (RQPNILVHL; listed as Homo sapiens) [compound 241] |  | UEC
286 (TVAPPQGVVK; listed as Homo sapiens) [compound 286] |  | HCC
325 (GPRNAQRVL; listed as Homo sapiens) [compound 325] |  | CRC, GBC, NHL, NSCLC
460 (RLSSATANALY; listed as Homo sapiens) [compound 460] |  | GBC
179 (REAGDEFEL; listed as Homo sapiens) [compound 179] |  | CCC, NSCLC, SCLC
491 (EAYSSTSSW; listed as Homo sapiens) [compound 491] |  | GBC, UEC
32 (SPNKGTLSV; listed as Homo sapiens) [compound 32] |  | NSCLC

— patent publication US20210340217A1, “NOVEL PEPTIDES AND COMBINATION OF PEPTIDES FOR USE IN IMMUNOTHERAPY AGAINST OVARIAN CANCER AND OTHER CANCERS” (Immatics Biotechnologies GmbH, priority 2017, published 2021)
